In the supplement of paper PMC10849652:
The other results are listed elsewhere or left out.

Amino acid sequences for entries named in this document (tags omitted). A change or cut given only in a name is not applied to a line headed by its entry.
UniProt Q8TB52: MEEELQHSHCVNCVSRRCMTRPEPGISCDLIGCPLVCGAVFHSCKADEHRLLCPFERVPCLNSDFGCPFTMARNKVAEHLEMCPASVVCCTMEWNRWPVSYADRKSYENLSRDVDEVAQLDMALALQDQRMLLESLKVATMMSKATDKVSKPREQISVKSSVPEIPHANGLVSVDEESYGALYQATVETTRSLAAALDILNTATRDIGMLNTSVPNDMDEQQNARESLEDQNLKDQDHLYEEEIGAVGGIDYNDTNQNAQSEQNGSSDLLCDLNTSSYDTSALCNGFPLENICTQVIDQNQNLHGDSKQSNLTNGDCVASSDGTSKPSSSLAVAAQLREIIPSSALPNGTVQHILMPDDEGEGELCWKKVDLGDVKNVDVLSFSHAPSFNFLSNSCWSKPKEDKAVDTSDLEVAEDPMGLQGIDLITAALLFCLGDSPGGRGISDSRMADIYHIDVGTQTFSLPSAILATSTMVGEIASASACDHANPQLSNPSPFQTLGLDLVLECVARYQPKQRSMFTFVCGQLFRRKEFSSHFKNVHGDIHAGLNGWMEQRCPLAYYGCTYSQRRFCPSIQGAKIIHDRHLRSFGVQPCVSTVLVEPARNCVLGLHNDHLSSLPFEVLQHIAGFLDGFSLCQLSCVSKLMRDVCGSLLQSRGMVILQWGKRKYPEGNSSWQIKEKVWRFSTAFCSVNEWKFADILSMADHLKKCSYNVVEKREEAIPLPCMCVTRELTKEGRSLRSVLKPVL
UniProt Q9UKT4: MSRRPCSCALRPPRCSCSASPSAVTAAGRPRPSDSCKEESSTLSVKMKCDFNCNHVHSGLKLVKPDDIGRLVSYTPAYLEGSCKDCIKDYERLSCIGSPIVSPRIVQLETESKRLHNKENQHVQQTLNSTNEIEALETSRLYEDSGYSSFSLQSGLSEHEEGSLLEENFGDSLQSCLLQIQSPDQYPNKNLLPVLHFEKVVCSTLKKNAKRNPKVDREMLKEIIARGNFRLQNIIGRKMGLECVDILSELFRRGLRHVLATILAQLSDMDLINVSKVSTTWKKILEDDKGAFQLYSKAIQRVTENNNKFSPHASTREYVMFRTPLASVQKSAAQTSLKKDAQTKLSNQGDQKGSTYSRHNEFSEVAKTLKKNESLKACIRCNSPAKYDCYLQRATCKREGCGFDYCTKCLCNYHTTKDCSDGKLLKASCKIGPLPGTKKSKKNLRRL
UniProt Q9HA64: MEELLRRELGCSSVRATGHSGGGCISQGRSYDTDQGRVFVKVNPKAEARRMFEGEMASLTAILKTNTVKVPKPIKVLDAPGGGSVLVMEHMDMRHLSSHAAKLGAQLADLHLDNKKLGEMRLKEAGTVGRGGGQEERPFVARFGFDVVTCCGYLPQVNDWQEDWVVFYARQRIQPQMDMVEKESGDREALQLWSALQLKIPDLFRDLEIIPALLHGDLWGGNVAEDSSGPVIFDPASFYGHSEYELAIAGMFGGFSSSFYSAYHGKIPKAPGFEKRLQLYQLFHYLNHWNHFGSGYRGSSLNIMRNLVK
UniProt Q8N3X1: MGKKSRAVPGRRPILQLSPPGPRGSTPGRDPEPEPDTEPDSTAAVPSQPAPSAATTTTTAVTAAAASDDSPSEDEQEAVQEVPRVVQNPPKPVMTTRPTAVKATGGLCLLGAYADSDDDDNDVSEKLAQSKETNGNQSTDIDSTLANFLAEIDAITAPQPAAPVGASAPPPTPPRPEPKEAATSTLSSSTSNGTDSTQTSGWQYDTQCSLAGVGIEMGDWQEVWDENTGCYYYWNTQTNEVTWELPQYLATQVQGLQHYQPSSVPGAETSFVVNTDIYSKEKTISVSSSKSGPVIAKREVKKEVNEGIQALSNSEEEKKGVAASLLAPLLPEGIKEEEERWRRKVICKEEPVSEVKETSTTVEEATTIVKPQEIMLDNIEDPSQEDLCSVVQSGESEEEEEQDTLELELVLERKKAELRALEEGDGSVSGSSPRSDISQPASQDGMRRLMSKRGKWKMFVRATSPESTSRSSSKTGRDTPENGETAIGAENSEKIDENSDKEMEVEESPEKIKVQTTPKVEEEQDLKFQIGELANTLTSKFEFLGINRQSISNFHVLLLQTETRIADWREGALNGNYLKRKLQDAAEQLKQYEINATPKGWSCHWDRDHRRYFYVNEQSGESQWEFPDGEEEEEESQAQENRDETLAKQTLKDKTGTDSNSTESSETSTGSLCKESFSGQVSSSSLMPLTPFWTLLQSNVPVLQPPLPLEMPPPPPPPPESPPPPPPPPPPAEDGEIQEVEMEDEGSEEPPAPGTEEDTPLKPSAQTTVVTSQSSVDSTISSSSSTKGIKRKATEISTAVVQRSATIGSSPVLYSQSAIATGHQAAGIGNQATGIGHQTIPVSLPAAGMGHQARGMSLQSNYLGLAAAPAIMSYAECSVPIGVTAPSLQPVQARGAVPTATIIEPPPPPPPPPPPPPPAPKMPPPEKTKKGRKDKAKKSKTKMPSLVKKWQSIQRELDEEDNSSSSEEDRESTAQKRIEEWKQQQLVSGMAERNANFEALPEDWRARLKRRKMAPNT
UniProt B1AJZ9: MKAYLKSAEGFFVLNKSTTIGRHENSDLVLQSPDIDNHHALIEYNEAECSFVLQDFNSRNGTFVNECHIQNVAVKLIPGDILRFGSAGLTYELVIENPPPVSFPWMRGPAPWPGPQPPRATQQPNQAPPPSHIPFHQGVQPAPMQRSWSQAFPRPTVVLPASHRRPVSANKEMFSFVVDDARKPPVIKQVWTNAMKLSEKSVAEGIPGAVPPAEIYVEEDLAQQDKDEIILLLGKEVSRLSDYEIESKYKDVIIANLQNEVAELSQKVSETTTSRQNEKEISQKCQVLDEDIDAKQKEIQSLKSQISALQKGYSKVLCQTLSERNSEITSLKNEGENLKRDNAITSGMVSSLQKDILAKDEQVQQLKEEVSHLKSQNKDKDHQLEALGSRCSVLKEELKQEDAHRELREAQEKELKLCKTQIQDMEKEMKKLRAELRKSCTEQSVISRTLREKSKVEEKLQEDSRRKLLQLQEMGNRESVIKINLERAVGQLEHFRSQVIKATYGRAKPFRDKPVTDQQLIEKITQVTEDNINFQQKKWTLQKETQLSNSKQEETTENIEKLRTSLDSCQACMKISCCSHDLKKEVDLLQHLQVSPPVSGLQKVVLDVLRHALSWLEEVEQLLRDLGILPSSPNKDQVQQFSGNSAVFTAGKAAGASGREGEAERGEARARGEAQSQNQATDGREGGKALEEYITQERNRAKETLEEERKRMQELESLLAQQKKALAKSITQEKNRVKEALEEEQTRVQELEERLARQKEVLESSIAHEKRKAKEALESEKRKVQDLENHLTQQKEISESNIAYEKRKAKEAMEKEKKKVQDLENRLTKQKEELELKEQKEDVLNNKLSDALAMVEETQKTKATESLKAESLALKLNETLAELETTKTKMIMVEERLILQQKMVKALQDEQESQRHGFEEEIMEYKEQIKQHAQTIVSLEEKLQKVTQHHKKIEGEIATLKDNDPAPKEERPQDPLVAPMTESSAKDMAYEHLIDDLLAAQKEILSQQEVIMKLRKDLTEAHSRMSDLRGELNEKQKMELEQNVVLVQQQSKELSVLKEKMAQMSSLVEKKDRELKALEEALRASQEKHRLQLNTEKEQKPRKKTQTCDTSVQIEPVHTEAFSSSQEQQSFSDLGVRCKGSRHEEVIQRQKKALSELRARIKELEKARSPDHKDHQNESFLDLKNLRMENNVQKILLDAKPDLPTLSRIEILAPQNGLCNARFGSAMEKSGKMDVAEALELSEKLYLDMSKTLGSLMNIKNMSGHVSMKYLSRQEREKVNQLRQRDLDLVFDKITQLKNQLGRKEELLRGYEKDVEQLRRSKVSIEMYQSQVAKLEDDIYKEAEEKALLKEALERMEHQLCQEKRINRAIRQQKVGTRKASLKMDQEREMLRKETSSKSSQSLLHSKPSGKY
UniProt Q9UKA2: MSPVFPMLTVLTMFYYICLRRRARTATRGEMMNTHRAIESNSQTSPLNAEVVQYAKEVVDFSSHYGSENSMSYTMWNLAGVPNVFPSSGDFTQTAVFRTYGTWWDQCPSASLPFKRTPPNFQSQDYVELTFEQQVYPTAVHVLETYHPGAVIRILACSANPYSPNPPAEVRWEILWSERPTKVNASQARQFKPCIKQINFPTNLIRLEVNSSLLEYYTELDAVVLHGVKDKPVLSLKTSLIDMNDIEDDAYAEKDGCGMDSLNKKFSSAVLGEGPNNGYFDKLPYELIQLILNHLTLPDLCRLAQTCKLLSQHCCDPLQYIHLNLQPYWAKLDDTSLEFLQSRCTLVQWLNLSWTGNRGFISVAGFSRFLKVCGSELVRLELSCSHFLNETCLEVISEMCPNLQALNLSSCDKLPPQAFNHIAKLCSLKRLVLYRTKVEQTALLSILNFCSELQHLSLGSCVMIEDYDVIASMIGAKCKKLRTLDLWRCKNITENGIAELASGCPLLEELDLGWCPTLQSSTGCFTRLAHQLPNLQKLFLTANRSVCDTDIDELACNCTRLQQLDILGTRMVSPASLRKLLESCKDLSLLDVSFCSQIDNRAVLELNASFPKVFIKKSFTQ
UniProt Q9HB96: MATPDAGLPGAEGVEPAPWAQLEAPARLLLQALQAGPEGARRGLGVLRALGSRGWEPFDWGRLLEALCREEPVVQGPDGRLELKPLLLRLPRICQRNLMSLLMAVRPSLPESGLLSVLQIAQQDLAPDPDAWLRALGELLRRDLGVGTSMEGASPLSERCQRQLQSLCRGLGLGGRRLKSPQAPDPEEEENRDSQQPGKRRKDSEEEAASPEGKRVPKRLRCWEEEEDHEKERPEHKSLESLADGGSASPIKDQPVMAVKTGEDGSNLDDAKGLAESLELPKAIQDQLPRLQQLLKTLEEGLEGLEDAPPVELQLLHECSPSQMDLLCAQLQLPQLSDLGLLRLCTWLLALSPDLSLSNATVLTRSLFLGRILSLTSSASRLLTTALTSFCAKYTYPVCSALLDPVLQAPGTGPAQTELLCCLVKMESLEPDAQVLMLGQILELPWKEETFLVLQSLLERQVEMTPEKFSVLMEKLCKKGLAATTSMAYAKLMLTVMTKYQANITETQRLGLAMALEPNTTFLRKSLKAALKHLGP
UniProt Q9H469: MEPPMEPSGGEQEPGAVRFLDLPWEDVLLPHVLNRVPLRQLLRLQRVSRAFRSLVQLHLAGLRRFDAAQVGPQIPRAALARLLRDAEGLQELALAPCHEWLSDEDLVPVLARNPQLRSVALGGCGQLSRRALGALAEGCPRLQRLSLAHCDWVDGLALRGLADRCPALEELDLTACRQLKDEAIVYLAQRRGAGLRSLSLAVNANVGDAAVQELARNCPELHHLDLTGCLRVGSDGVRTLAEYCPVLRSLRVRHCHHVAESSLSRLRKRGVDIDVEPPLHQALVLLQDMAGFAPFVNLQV
UniProt Q9NW38: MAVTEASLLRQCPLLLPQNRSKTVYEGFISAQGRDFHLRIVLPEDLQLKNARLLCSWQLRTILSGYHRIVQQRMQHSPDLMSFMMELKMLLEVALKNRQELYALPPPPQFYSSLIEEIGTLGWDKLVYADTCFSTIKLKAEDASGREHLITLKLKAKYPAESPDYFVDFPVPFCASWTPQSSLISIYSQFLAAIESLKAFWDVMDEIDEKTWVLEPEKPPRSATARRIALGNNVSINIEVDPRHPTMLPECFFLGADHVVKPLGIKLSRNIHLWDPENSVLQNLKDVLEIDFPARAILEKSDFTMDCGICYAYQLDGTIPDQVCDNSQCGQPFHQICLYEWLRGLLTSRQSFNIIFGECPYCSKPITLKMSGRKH

Assays:
Test in all cases: log2 fold change, soluble protein after heating vs DMSO (PISA); higher = thermal stabilisation; K562 lysate, 10 uM; active = over 0.2 and 3.5 SD of the protein, either way, in both replicates (recomputed)
[1] = compound: NCC(=O)Nc1ccc(-n2nc(C(F)(F)F)cc2-c2ccc3c(ccc4ccccc43)c2)cc1
Summary of the method: (§1)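 Thermal stability, expressed as log-two fold change relative to solvent controls, is given from duplicates. Crude K562 extract in PBS pH 7.4 with 1 mM MgCl2, at 1 mg/mL protein, was treated with 10 μM compound for 30 min and heated in aliquots for 3 min across 48°C-58°C. After pooling, adjustment to 0.5% NP-40 at 4°C and centrifugation at 21,000xg for 90 min, supernatant protein was measured by TMTpro 16plex LC-MS/MS with channel sums equalised.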

vorinostat = compound: O=C(CCCCCCC(=O)Nc1ccccc1)NO [vorinostat]
Summary of the method: as §1

silmitasertib = compound: O=C(O)c1ccc2c(c1)nc(Nc1cccc(Cl)c1)c1ccncc12 [silmitasertib]
Summary of the method: as §1

[2] = compound: O=C1NC(=O)C(c2cnc3ccccn23)=C1c1cn2c3c(cc(F)cc13)CN(C(=O)N1CCCCC1)CC2
Summary of the method: as §1

entospletinib = compound: c1cn2cc(-c3ccc4cn[nH]c4c3)nc(Nc3ccc(N4CCOCC4)cc3)c2n1 [entospletinib]
Summary of the method: as §1

Measured: log2 fold change

FBXO30 (UniProt Q8TB52)
inactive: [1] -0.01 | silmitasertib 0.042 | [2] -0.019 | entospletinib 0.013
active: vorinostat -0.316

FBXO5 (UniProt Q9UKT4)
inactive: [1] 0.001 | vorinostat -0.255 | silmitasertib -0.03 | [2] -0.032 | entospletinib 0.024

FN3KRP (UniProt Q9HA64)
inactive: [1] 0.005 | vorinostat 0.153 | silmitasertib -0.045 | [2] -0.006 | entospletinib 0.011

FANCD2 isoform 1 (UniProt Q9BXW9)
active: vorinostat -0.25
inactive: [1] 0.078 | silmitasertib -0.012 | [2] 0.008 | entospletinib -0.005

FNBP4 isoform 2 (UniProt Q8N3X1)
inactive: [1] -0.015 | vorinostat 0.034 | silmitasertib -0.003 | [2] -0.021 | entospletinib -0.019

FHAD1 isoform 3 (UniProt B1AJZ9)
inactive: [1] 0.327 | vorinostat 0.408 | silmitasertib -0.107 | entospletinib 0.061

FMR1 (UniProt Q06787)
inactive: [1] -0.031 | vorinostat 0.117 | silmitasertib 0.049 | [2] 0.031 | entospletinib -0.01

FBXL4 (UniProt Q9UKA2)
inactive: vorinostat -0.01 | silmitasertib -0.08 | entospletinib -0.009

FANCE (UniProt Q9HB96)
inactive: [2] -0.116

FBXL15 (UniProt Q9H469)
inactive: [1] -0.075 | [2] 0.145 | entospletinib -0.032

FANCL isoform 2 (UniProt Q9NW38)
inactive: vorinostat -0.473 | silmitasertib 0.08 | [2] -0.076 | entospletinib 0.101
